Data taken from article PMC3988887.
No constants are given. Whether binding was seen depends on the method and setting. Some binding calls cover weakened binding; strength is not graded here.

Biological target: Cnn fragment Q403-H608 containing the WT PReM domain (yeast two-hybrid bait and prey) (Drosophila melanogaster) (UniProt P54623)
Assay: two-hybrid; baits and preys both Cnn Q403-H608 (WT, LZA or 10A); pPC86-AN and pPC97-AN vectors, yeast strains Y8800 and Y8930; growth on media selecting for an interaction

- binding: binds
B1: Cnn fragment Q403-H608 containing the WT PReM domain (yeast two-hybrid bait and prey) (domain or fragment, UniProt P54623-2 403-608)
chain: QLQTEVKKKTANLQNLVNKELWEKNREVERLTKLLANQQKTLPQISEESAGEADLQQSFTEAEYMRALERNKLLQRKVDVLFQRLADDQQNSAVIGQLRLELQQARTEVETADKWRLECVDVCSVLTNRLEELAGFLNSLLKHKDVLGVLAADRRNAMRKAVDRSLDLSKSLNMTLNITATSLADQSLAQLCNLSEILYTEGDASH
